{"source": "PubChem BioAssay AID1259254 (NCATS, 2017)", "aim": "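Genome-wide screen for genes that prevent DNA re-replication in cancer cells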 (primary screen)", "system": "human HCT116 colorectal cancer cells", "reagents": "single siRNA against human genes", "duration": "3 days", "detection": "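Imaged Hoechst DNA stain sorts each cell into a cycle phase by DNA amount; per plate, G2 fraction set to 0% for non-targeting and 100% for GMNN siRNA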", "reading the numbers": "G2 robust z-score: higher = more G2 cells, more excess DNA replication", "hit rule": "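An siRNA counts as active if its G2 robust z-score lies at least 5 MADs above the screen median; here such calls match roughly 38% of GMNN control or more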", "note": "The deposit covers about 59,000 reagents; shown is a random part of them. About 1,550 of them (2.6%) count as active. 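G2 share is only a proxy for re-replication; each gene was hit by three separate siRNAs, and active genes were retested.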 Reagents against one gene are numbered here. Not all columns of the deposit are shown. The record does not give: the amount of reagent."}
{"Gene": "ART3 (ADP-ribosyltransferase 3 (inactive))", "reagent no.": 1, "G2 robust z-score": -0.273, "call": "inactive"}
{"Gene": "ART3 (ADP-ribosyltransferase 3 (inactive))", "reagent no.": 2, "G2 robust z-score": 1.86, "call": "inactive"}
{"Gene": "ART3 (ADP-ribosyltransferase 3 (inactive))", "reagent no.": 3, "G2 robust z-score": -1.37, "call": "inactive"}
{"Gene": "RFC2 (replication factor C subunit 2)", "reagent no.": 1, "G2 robust z-score": 1.06, "call": "inactive"}
{"Gene": "RFC2 (replication factor C subunit 2)", "reagent no.": 2, "G2 robust z-score": -0.337, "call": "inactive"}
{"Gene": "RFC2 (replication factor C subunit 2)", "reagent no.": 3, "G2 robust z-score": -0.977, "call": "inactive"}
{"Gene": "SFT2D1 (SFT2 domain containing 1)", "reagent no.": 1, "G2 robust z-score": -0.592, "call": "inactive"}
{"Gene": "SFT2D1 (SFT2 domain containing 1)", "reagent no.": 2, "G2 robust z-score": -0.0978, "call": "inactive"}
{"Gene": "SFT2D1 (SFT2 domain containing 1)", "reagent no.": 3, "G2 robust z-score": -0.344, "call": "inactive"}
{"Gene": "HSPB3 (heat shock protein family B (small) member 3)", "reagent no.": 1, "G2 robust z-score": 3.25, "call": "inactive"}
{"Gene": "HSPB3 (heat shock protein family B (small) member 3)", "reagent no.": 2, "G2 robust z-score": 0.649, "call": "inactive"}
{"Gene": "HSPB3 (heat shock protein family B (small) member 3)", "reagent no.": 3, "G2 robust z-score": -0.305, "call": "inactive"}
{"Gene": "VANGL2 (VANGL planar cell polarity protein 2)", "reagent no.": 1, "G2 robust z-score": -0.651, "call": "inactive"}
{"Gene": "VANGL2 (VANGL planar cell polarity protein 2)", "reagent no.": 2, "G2 robust z-score": 6.6, "call": "active"}
{"Gene": "VANGL2 (VANGL planar cell polarity protein 2)", "reagent no.": 3, "G2 robust z-score": -0.0433, "call": "inactive"}
{"Gene": "TUBB4A (tubulin beta 4A class IVa)", "reagent no.": 1, "G2 robust z-score": -0.48, "call": "inactive"}
{"Gene": "TUBB4A (tubulin beta 4A class IVa)", "reagent no.": 2, "G2 robust z-score": 0.7, "call": "inactive"}
{"Gene": "TUBB4A (tubulin beta 4A class IVa)", "reagent no.": 3, "G2 robust z-score": -0.704, "call": "inactive"}
